Laboratory results published in PubChem BioAssay (EPA / NIEHS).
The shares of active, inactive and inconclusive entries below differ from those in the screen. For some assays here: Potencies of inconclusive entries are doubtful fits and often do not repeat. Calls of active or inactive are those of the source. How the source made its calls: active means hit-call score of the fitted dose curve at least 0.9, where 1 is the maximum; inconclusive means response in the unintended direction; inactive means score below 0.9.

Sequences of proteins named here, by UniProt entry; tags and fusion partners are left off. A change or cut given only in a name is not applied to a line headed by its entry.
UniProt O75469: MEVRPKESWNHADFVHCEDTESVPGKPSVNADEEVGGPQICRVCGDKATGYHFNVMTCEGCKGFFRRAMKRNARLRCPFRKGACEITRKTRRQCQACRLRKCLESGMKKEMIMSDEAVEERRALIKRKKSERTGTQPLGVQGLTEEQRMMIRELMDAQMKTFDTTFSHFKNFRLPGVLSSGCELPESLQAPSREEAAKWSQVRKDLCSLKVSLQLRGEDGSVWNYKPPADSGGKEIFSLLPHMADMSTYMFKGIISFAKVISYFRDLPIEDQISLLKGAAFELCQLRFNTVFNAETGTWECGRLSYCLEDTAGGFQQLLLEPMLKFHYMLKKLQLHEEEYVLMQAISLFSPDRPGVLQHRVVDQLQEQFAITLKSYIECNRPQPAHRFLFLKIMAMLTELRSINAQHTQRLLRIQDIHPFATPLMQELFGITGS
UniProt Q01717: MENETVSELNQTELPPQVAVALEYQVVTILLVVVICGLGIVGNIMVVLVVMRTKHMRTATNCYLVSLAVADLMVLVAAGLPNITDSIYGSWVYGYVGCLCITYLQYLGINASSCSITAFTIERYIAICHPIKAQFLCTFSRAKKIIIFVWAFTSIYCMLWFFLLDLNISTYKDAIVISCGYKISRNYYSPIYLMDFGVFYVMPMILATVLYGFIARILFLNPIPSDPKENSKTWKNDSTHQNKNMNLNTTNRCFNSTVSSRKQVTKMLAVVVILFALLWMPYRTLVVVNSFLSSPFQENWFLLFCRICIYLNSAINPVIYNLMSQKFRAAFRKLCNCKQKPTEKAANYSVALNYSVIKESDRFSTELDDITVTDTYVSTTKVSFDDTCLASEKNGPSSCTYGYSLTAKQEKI
UniProt P04150: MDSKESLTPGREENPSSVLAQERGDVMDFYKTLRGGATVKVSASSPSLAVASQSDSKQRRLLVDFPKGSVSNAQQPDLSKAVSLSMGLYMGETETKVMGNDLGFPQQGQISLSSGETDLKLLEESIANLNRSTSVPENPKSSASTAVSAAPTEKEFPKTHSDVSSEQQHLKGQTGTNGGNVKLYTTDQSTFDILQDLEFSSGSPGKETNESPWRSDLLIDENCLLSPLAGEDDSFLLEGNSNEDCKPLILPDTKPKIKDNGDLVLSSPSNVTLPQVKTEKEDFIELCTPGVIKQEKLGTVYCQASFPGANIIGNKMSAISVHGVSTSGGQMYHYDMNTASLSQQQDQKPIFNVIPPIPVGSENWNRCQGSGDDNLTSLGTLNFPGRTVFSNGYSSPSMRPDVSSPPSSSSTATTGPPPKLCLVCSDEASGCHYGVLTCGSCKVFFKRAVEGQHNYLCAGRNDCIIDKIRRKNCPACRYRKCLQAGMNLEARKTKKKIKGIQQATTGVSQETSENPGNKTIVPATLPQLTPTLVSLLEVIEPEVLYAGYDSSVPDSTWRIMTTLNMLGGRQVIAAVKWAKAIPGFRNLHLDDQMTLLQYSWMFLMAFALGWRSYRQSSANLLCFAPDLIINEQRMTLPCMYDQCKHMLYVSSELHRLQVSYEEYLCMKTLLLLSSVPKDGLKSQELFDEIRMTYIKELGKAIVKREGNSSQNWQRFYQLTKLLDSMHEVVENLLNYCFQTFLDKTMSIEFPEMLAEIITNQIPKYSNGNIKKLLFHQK
UniProt P33261, whole entry, looked up: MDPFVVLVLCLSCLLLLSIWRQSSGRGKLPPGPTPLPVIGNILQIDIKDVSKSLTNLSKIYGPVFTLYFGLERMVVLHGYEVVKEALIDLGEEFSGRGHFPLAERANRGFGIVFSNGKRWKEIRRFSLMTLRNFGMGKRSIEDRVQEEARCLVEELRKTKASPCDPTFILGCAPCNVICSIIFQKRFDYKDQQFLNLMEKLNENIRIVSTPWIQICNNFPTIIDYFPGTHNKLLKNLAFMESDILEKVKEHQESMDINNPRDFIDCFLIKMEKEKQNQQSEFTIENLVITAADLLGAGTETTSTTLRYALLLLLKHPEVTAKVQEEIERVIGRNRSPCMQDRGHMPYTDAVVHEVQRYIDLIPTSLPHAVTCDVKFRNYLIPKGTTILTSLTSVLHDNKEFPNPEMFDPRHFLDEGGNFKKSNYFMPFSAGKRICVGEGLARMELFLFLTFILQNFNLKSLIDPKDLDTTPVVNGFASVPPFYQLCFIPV
UniProt P04406: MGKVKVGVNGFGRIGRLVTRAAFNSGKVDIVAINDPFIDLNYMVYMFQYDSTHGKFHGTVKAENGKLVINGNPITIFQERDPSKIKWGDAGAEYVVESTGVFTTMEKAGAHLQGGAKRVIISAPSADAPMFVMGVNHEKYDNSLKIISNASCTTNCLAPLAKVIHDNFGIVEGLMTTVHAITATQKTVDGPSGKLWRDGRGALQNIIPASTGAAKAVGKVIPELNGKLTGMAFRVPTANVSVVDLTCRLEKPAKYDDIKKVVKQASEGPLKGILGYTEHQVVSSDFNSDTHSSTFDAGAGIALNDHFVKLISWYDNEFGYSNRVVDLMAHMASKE
UniProt P11712, whole entry, looked up: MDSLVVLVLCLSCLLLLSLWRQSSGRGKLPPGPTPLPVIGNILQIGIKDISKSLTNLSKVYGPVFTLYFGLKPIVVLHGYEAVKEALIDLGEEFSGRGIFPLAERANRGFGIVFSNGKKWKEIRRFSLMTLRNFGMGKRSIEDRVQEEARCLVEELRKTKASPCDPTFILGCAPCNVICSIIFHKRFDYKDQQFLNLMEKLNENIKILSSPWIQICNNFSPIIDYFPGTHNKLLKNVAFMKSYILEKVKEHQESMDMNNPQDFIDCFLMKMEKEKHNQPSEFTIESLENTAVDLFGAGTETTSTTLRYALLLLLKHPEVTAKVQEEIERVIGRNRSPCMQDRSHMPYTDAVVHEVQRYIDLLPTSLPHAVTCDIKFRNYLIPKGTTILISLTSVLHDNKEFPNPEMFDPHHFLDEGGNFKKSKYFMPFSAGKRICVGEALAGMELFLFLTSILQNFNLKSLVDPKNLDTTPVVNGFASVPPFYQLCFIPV
UniProt Q9UNQ0: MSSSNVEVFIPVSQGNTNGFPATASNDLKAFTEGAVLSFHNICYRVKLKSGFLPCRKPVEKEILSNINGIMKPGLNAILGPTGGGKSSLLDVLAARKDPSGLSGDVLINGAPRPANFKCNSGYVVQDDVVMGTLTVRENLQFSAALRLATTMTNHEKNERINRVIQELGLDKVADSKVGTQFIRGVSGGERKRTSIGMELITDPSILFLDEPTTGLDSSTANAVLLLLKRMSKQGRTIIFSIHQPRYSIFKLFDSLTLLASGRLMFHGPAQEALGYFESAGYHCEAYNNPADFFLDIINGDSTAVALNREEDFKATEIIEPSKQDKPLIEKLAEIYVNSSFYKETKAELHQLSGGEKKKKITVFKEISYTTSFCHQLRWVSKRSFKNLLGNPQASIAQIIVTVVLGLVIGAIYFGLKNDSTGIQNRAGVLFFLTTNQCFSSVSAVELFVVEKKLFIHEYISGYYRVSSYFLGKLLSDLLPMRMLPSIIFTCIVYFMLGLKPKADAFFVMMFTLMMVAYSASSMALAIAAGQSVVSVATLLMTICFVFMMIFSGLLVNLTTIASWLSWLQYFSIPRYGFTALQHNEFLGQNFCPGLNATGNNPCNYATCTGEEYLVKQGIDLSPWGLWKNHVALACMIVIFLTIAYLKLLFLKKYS
UniProt Q96RI1: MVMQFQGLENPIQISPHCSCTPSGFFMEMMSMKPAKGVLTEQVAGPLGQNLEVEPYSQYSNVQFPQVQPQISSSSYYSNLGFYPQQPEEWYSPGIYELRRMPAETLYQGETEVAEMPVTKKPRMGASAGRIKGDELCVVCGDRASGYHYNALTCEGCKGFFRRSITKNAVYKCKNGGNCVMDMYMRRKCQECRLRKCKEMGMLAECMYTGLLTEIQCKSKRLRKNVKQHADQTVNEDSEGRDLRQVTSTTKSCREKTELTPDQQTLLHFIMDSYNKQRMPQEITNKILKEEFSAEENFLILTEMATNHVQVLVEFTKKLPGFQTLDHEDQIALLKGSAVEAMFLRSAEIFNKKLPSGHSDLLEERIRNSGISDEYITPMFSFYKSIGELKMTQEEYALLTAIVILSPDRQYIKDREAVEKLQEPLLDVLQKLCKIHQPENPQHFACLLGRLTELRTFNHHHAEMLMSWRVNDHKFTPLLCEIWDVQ

Assays:
[1] = molecular target: Nuclear receptor subfamily 1 group I member 2 (Homo sapiens) (UniProt O75469); assay: ATG_PXR_TRANS: Attagene TRANS-FACTORIAL HepG2 Assay for human Pregnane X Receptor (PXR) (AID 2283008)
Method in brief: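 Transient HepG2 transfectants carrying multiplexed reporter transcription units; PXR activity read through a Gal4 chimera. 24 h exposure. RT-PCR/CE fluorescence; upward curve fit referenced to DMSO.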

[2] = molecular target: rat Thyrotropin Releasing Hormone Receptor (TRH), Trhr (gene 25570) (UniProt Q01717); assay: NVS_GPCR_rTRH: NovaScreen (NVS) G Protein-Coupled Receptor Assay for rat Thyrotropin Releasing Hormone Receptor (TRH) (AID 2283329);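 further: hit means lower bound tracer signal versus DMSO baseline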
Method in brief: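 Cell-free radioligand binding on rat forebrain membranes; bound tracer measured by filter-based scintillation counting 4 hours after dosing. Loss of signal versus DMSO baseline indicates displacement; primary screen at 25 uM in duplicate, actives then run in concentration series.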

[3] = molecular target: Glucocorticoid receptor (Homo sapiens) (UniProt P04150); assay: ATG_GR_TRANS: Attagene TRANS-FACTORIAL HepG2 Assay for human Glucocorticoid Receptor (GR) (AID 2282978); settings: HepG2 Attagene TRANS GR reporter, mRNA transcription;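 further: activators score as hits since higher reporter transcript over DMSO is fitted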
Method in brief: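 HepG2 transient transfection, multiple reporter units, GAL4-UAS under NR-GAL4 chimera control. 24 h treatment. Reporter mRNA by RT-PCR/CE fluorescence, DMSO as negative control.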

[4] = ATG_Hpa5_TRANS: Attagene TRANS-FACTORIAL HepG2 Assay for human GAL4-Hpa5 Hepatocyte Transcription Factor Basal Promoter (AID 2282975); settings: HepG2 Attagene GAL4-Hpa5 transcription reporter;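 on outcome: hits are increases in reporter mRNA over DMSO baseline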
Method in brief: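 Gain-of-signal versus DMSO is fitted for reporter mRNA quantified by RT-PCR and capillary electrophoresis after 24 h exposure. This endpoint is an internal background marker in transiently transfected HepG2 cells carrying GAL4-UAS reporter units.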

[5] = CLD_ACTIN_6hr: CellzDirect (CLD) Gene Expression Assay for Baseline Control (Actin) at 6 hours (AID 2283676);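 on outcome: active means increased actin mRNA relative to DMSO vehicle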
Method in brief: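 Baseline actin transcript level measured by qNPA (S1 nuclease protection, chemiluminescence) in human hepatocyte cultures 6 h after chemical exposure; 0.2% DMSO vehicle as reference, cytotoxicity noted from morphology.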

[6] = read-out: Cytochrome P450 2C19 (Homo sapiens) (UniProt P33261); assay: CLD_CYP2C19_6hr: CellzDirect (CLD) Gene Expression Assay for xenobiotic metabolism (CYP2C19) at 6 hours (AID 2283678)
Method in brief: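 CYP2C19 transcript induction was quantified by quantitative nuclease protection assay with chemiluminescent read-out, 6 h after dosing. Cells were primary human hepatocytes from two donor preparations, given fresh dosing solutions daily in 0.2% DMSO vehicle. Activity was relative to DMSO.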

[7] = read-out: Glyceraldehyde-3-phosphate dehydrogenase (Homo sapiens) (UniProt P04406); assay: CLD_GAPDH_6hr: CellzDirect (CLD) Gene Expression Assay for Baseline Control (Glyceraldehyde 3-phosphate dehydrogenase) at 6 hours (AID 2283681);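 on outcome: active means increased signal relative to DMSO vehicle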
Method in brief: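 GAPDH baseline-control readout from qNPA (S1 nuclease digestion, probe hybridization, chemiluminescence) in lysates of cultured human hepatocytes harvested 6 h post-dosing. Chemicals tested at multiple concentrations versus 0.2% DMSO vehicle; microscopy-based cytotoxicity flagged yes/no.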

[8] = read-out: HMG-CoA synthase (HMGCS2), HMGCS2 (gene 3158); assay: CLD_HMGCS2_6hr: CellzDirect (CLD) Gene Expression Assay for HMG-CoA synthase (HMGCS2) at 6 hours (AID 2283682);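 further: actives raise HMGCS2 transcript above the 0.2% DMSO vehicle baseline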
Method in brief: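 HMGCS2 transcript induction read by quantitative nuclease protection with chemiluminescence, 6 h after dosing of primary human hepatocytes. Baseline was 0.2% DMSO vehicle; phase-contrast morphology gave a yes/no cytotoxicity annotation.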

[9] = read-out: Cytochrome P450 2C9 (Homo sapiens) (UniProt P11712); assay: CLD_CYP2C9_24hr: CellzDirect (CLD) Gene Expression Assay for xenobiotic metabolism (CYP2C9) at 24 hours (AID 2283688);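 further: potency for induction meaning a rise in CYP2C9 mRNA over DMSO vehicle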
Method in brief: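 Induction of CYP2C9 mRNA was quantified by quantitative nuclease protection assay (chemiluminescence), gain of signal versus 0.2% DMSO vehicle, 24 h after dosing. Human primary hepatocytes (two donors) received fresh chemical daily at multiple concentrations; morphology-based cytotoxicity flagged yes/no.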

[10] = read-out: ABC Transporter (ABCB11), ABCB11 (gene 8647); assay: CLD_ABCB11_48hr: CellzDirect (CLD) Gene Expression Assay for ABC Transporter (ABCB11) at 48 hours (AID 2283697)
Method in brief: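 Induction of ABCB11 mRNA relative to 0.2% DMSO, measured at 48 h by qNPA chemiluminescence. Cultured human hepatocytes (two donors) received fresh dosing solutions at several concentrations on two consecutive days.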

[11] = read-out: Cytochrome P450 2C19 (Homo sapiens) (UniProt P33261); assay: CLD_CYP2C19_48hr: CellzDirect (CLD) Gene Expression Assay for xenobiotic metabolism (CYP2C19) at 48 hours (AID 2283700);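 on outcome: fitted upward so actives raise CYP2C19 mRNA above the 0.2% DMSO vehicle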
Method in brief: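 CYP2C19 mRNA induction read by chemiluminescent quantitative nuclease protection assay after 48 h, with fresh compound added daily for two days to cultured human liver hepatocytes. Activity fitted upward against 0.2% DMSO vehicle.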

[12] = read-out: organic anion transporter (SLCO1B1), SLCO1B1 (gene 10599); assay: CLD_SLCO1B1_24hr: CellzDirect (CLD) Gene Expression Assay for organic anion transporter (SLCO1B1) at 24 hours (AID 2283690)
Method in brief: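 SLCO1B1 mRNA induction read at 24 h by quantitative nuclease protection assay (chemiluminescence), analyzed against DMSO baseline. Human hepatocyte cultures from separate donors received fresh dosing solutions daily; vehicle 0.2% DMSO; cytotoxicity flagged by phase-contrast morphology.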

[13] = read-out: Glyceraldehyde-3-phosphate dehydrogenase (Homo sapiens) (UniProt P04406); assay: CLD_GAPDH_24hr: CellzDirect (CLD) Gene Expression Assay for Baseline Control (Glyceraldehyde 3-phosphate dehydrogenase) at 24 hours (AID 2283692)
Method in brief: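 GAPDH baseline-control readout: qNPA chemiluminescent mRNA signal in human primary hepatocytes harvested 24 h after daily dosing, normalised to 0.2% DMSO with positive fitting direction; cytotoxicity annotated by phase-contrast morphology.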

[14] = read-out: Broad substrate specificity ATP-binding cassette transporter ABCG2 (Homo sapiens) (UniProt Q9UNQ0); assay: CLD_ABCG2_48hr: CellzDirect (CLD) Gene Expression Assay for ABC Transporter (ABCG2) at 48 hours (AID 2283704);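 on AC50: potency for induction of ABCG2 mRNA above the DMSO baseline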
Method in brief: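 ABCG2 transcript measured at 48 h by quantitative nuclease protection (chemiluminescent) and fitted for increase relative to 0.2% DMSO. Hepatocyte cultures from separate donors got fresh compound daily over two days; morphology annotated cytotoxicity.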

[15] = read-out: alkyl and aryl transferase (GSTA2), GSTA2 (gene 2939); assay: CLD_GSTA2_48hr: CellzDirect (CLD) Gene Expression Assay for alkyl and aryl transferase (GSTA2) at 48 hours (AID 2283708);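 further: active means mRNA induction above DMSO vehicle baseline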
Method in brief: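 GSTA2 mRNA quantified by qNPA chemiluminescence in human primary hepatocyte lysates after 48 h of daily fresh chemical dosing. Increases fitted against 0.2% DMSO vehicle baseline; cytotoxicity from morphology annotated yes/no.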

[16] = CCTE_Deisenroth_AIME_384WELL_CTox_Inactive: Cytotoxicity Assessment (CTOX) in CCTE's 384-well Estrogen Receptor Transactivation Assay without AIME metabolic competence (metabolism negative), Deisenroth Lab (AID 2284039);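 further: cell viability via live-cell protease substrate cleaved to fluorescent probe; cells exposed 24 h to medium preincubated 2 h with alginate-water beads without S9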
Method in brief: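 VM7Luc4E2 human breast cells received conditioned medium from a 2 h incubation of chemical with alginate-water microspheres (no S9), then were exposed 24 h. Viability was read as protease-substrate cleavage to a fluorescent probe; loss of signal was fitted bidirectionally over 0.002–200 uM.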

[17] = molecular target: Bile acid receptor (Homo sapiens) (UniProt Q96RI1); assay: ATG_FXR_TRANS: Attagene TRANS-FACTORIAL HepG2 Assay for Farnesoid X Receptor (FXR) (AID 2282979); settings: HepG2 Attagene TRANS FXR-GAL4 reporter transcription;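 further: hits raise reporter mRNA above DMSO so AC50 marks FXR activation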
Method in brief: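 Transient transfection of HepG2 with multiplexed GAL4-UAS reporter units; exogenous FXR-GAL4 chimera. Dose 24 h → TriZol RNA → oligo(dT) RT → PCR, 6-FAM primer extension, HpaI cut → CE. Gain vs DMSO.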

[18] = read-out: Cytochrome P450 2C19 (Homo sapiens) (UniProt P33261); assay: CLD_CYP2C19_24hr: CellzDirect (CLD) Gene Expression Assay for xenobiotic metabolism (CYP2C19) at 24 hours (AID 2283687)
Method in brief: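 CYP2C19 mRNA was quantified by qNPA chemiluminescence after 24 h of daily dosing of cultured human primary hepatocytes from two donors; vehicle was 0.2% DMSO, and increases over DMSO baseline were fitted.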

[19] = CCTE_Deisenroth_AIME_384WELL_CTox_Active: Cytotoxicity Assessment (CTOX) in CCTE's 384-well Estrogen Receptor Transactivation Assay with AIME metabolic competence (metabolism positive), Deisenroth Lab (AID 2284037);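 further: chemicals first conditioned 2 h by alginate-bound induced rat liver S9 before cells; activity means signal loss indicating cell death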
Method in brief: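 VM7Luc4E2 breast cells received medium pre-incubated 2 h with chemical over alginate microspheres holding induced male Sprague Dawley rat liver S9; viability read 24 h later by protease-substrate fluorescence. Loss of signal, bidirectional fit, 0.002–200 uM.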

[20] = Tanguay_ZF_120hpf_PIG_legacy: (Legacy) Oregon State University Tanguay Lab 120 Hour Post-fertilization zebrafish Assay for Pigmentation Malformation (AID 2283650)
Method in brief: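 Endpoint is incidence of abnormal pigmentation at 120 hpf in dechorionated 5D zebrafish exposed singly from 6 hpf at 28C, DMSO vehicle at 0.64%. Embryos dying by 24 or 120 hpf are excluded from scoring.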

In the case of NNC(=S)NN, the AC50 [1] was inconclusive: 100 µM and the AC50 [2] was inconclusive: 6.52 µM.
For CC(C)(C)OOC(C)(C)CCC(C)(C)OOC(C)(C)C, the AC50 [3] was inconclusive: 0.696 µM.
For CCCCOC(=O)c1ccccc1C(=O)O, the AC50 [4] was inconclusive: 50 µM, the AC50 [1] was inconclusive: 50 µM and the AC50 [5] was inconclusive: 0.0884 µM. For the same compound, the outcome [6] was “inactive”, the outcome [7] was “inactive” and the AC50 [8] was inconclusive: 20 µM. The AC50 [9] was inconclusive: 20 µM, the outcome [10] was “inactive” and the outcome [11] was “inactive”.
With CCN(CC)C(=O)Cl the AC50 [3] was inconclusive: 0.125 µM.
With O=C(O)c1cc(Oc2ccc(C(F)(F)F)cc2Cl)ccc1[N+](=O)[O-] the outcome [4] was “inactive”, the outcome [5] was “inactive” and the outcome [6] was “inactive”. For the same compound, the AC50 [7] was inconclusive: 0.0178 µM, the AC50 [8] was active: 0.00569 µM and the AC50 [9] was inconclusive: 0.01 µM. For the same compound, the outcome [12] was “inactive”, the outcome [13] was “inactive” and the AC50 [14] was inconclusive: 20 µM. For the same compound, the AC50 [15] was inconclusive: 20 µM and the outcome [16] was “inactive”.
With O=C=Nc1ccccc1 the AC50 [1] was inconclusive: 25.4 µM and the AC50 [2] was inconclusive: 0.271 µM.
With COP(N)(=S)OC the AC50 [17] was inconclusive: 48.6 µM.
With N#Cc1ccccc1Cl the AC50 [3] was inconclusive: 100 µM.
For CC(C)C1(C)N=C(c2nc3ccccc3cc2C(=O)O)NC1=O (configuration not stated), the outcome [4] was “inactive”, the AC50 [3] was inconclusive: 50 µM and the outcome [7] was “inactive”. The outcome [8] was “inactive”, the AC50 [9] was inconclusive: 1.99 µM and the AC50 [10] was inconclusive: 20 µM. The AC50 [11] was inconclusive: 20 µM and the outcome [14] was “inactive”.
In the case of CCOc1nc(C(Cl)(Cl)Cl)ns1, the AC50 [4] was inconclusive: 0.0236 µM, the outcome [5] was “inactive” and the outcome [6] was “inactive”. The outcome [7] was “inactive”, the AC50 [8] was inconclusive: 20 µM and the AC50 [18] was inconclusive: 1.27 µM. The AC50 [12] was inconclusive: 20 µM, the AC50 [11] was inconclusive: 20 µM and the AC50 [14] was inconclusive: 20 µM. For the same compound, the AC50 [15] was inconclusive: 20 µM, the AC50 [19] was inconclusive: 0.0002 µM and the AC50 [16] was inconclusive: 0.0002 µM.
In the case of O=[N+]([O-])O.O=[N+]([O-])O.[Cd], the AC50 [3] was inconclusive: 5.16 µM and the AC50 [1] was inconclusive: 17 µM.
In the case of CCOC(=O)N(C)N=O, the AC50 [3] was inconclusive: 100 µM and the AC50 [1] was inconclusive: 100 µM.
With Cc1ccc(OP(=O)(Oc2ccc(C)cc2)Oc2ccc(C)cc2)cc1 (tested in a mixture with another compound) the outcome [2] was “inactive”.
With Cc1ccc2nc3sc(=O)sc3nc2c1 the AC50 [1] was active: 6.31 µM.
In the case of ClC1=C(Cl)[C@]2(Cl)[C@@H]3[C@H]4C[C@H]([C@@H]5O[C@H]45)[C@@H]3[C@@]1(Cl)C2(Cl)Cl, the AC50 [20] was inconclusive: 46.5 µM and the AC50 [19] was inconclusive: 0.00179 µM.
In the case of CCCCN(CCCC)N=O, the AC50 [20] was inconclusive: 104 µM.
In the case of CCCCCCCCCCCCCCCC[N+](C)(C)C, the outcome [2] was “inactive” and the AC50 [16] was active: 100 µM.
